Test results as given in patent publication US11892406B2, “Method and device for assaying the interaction and dynamics of permeation of a molecule and a lipid bilayer” (DUBLIN CITY UNIVERSITY, priority 2018, dated 2024).

Experiment: Metal enhanced fluorescence permeation assay, DOPC bilayer spanned over gold microcavity array
Format: in vitro ADME
Conditions: bilayer modified array compared to unmodified cavity array
Protocol: Following removal of PS spheres, if in place, washing and aqueous filling of the array a Langmuir monolayer of lipids was spread across the micropore array, using either a Model 102M, LB trough or Model KN2006 from KSV-NIMA technology, LB alternate. The lipid mixture (across single or diverse lipid compositions) was prepared in chloroform at a concentration of 1 mg/ml. 50 μL of this solution was suspended on the water sub-phase. Fifteen minutes were allocated for evaporation of the solvent, prior to lipid monolayer compression. The rate of compression was 30 cm2/min and a constant surface pressure of 32 mN/m was maintained during the transfer of a probe labelled lipid monolayer from the water-air interface to the aqueous filled microcavity array. During LB transfer, the rate of the dipper motion was 5 mm min-1 to ensure adequate transfer. […]
A Horiba Labram HR instrument was used for both Raman and fluorescence measurements using a 50× long distance magnification objective (Leica). The wavelengths were typically 473 nm and 785 nm were used for fluorescence measurements and Raman measurements respectively. […] Typically a 1% neutral density filter and 300 μm slit were used for fluorescence and no filter for Raman. […]
For drug/molecular diffusion studies, drug solutions were prepared as stock solutions for introduction into the bilayer contacting solution dissolved in PBS or Tris buffer at concentrations that permitted final concentrations (on contact with the bilayer buffer) of 1 nM to several millimolar. […] Drug diffusion samples were analysed by first obtaining a bilayer spectra while sample is immersed in PBS. Once obtained, known concentrations of drug were added to the PBS in the case of Fluorescence in an open chamber of 2 mL volume containing the bilayer modified substrate spectra or in the case of Raman spectra in a closed microfluidic structure. […]

Compound | change of emission spectrum whilst in the bilayer | change of emission spectrum whilst in the bilayer (listed as doxorubicin)
COc1cccc2c1C(=O)c1c(O)c3c(c(O)c1C2=O)C[C@@](O)(C(C)=O)C[C@@H]3O[C@H]1C[C@H](N)[C@H](O)[C@H](C)O1 [Duanorubicin] | transitory shifts in emission peak maximum and relative intensity of the vibrational progression | 
COc1cccc2c1C(=O)c1c(O)c3c(c(O)c1C2=O)C[C@@](O)(C(=O)CO)C[C@@H]3O[C@H]1C[C@H](N)[C@H](O)[C@H](C)O1 [Doxorubicin] | transitory shift to the red | transitory shifts in emission peak maximum and relative intensity of the vibrational progression
